PubChem BioAssay AID743121 | NCATS – 2013
This is an unselected part of about 26,000 reagents. 167 of them (0.63%) count as active. 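Calls are per gene from RSA p-values that are not deposited; an individual active-marked siRNA can sensitise only weakly.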 Reagents against one gene are numbered here. Further read-outs or replicates are left out here.

- Assay: 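Partners whose loss is lethal together with topoisomerase I blockade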 (primary screen)
- System: MDA-MB-231 cells, a human breast cancer line
- Knock-down reagent: single siRNA against human genes, 20 nM siRNA (0.8 pmol per well)
- Duration: 120 h (drug added 48 h after transfection, read 72 h later)
- Treatment: camptothecin 20 nM (about EC30) for 72 h; vehicle 0.1% DMSO in parallel plates
- Measurement: 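CellTiter-Glo ATP signal, scaled to control siRNA as percent viability; sensitisation given as log2 of untreated divided by camptothecin-treated viability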
- Direction: log2 vehicle/camptothecin viability: higher = stronger sensitisation to camptothecin
- Hit rule: 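Active genes have an RSA gene-level p-value below 0.001, computed from the ratios of their separate siRNAs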

log2 vehicle/camptothecin viability, by target gene and reagent
DHRS2: #1 -0.0208 inactive; #2 -0.207 inactive; #3 -0.148 inactive; #4 -0.0319 inactive
RGS11: #1 -0.394 inactive; #2 0.199 inactive; #3 -0.506 inactive
SRPX2: #1 -0.0376 inactive; #2 0.243 inactive; #3 -0.0112 inactive
GRIN2A: #1 -0.716 inactive; #2 -0.0708 inactive; #3 -0.0184 inactive
CDK7: #1 0.0616 inactive; #2 1.78 inactive; #3 0.104 inactive; #4 -0.0624 inactive
ADGRF5: #1 -0.234 inactive; #2 0.7 inactive; #3 1.2 inactive; #4 0.0578 inactive
CA5BP1: #1 0.297 inactive; #2 0.188 inactive
MDH2: #1 -0.316 inactive; #2 -0.386 inactive; #3 -0.00379 inactive
SLC9A6: #1 -0.379 inactive; #2 -0.183 inactive; #3 -0.414 inactive; #4 -0.459 inactive
CRAT: #1 0.748 inactive; #2 -0.19 inactive; #3 -0.236 inactive; #4 -0.554 inactive
LITAF: #1 -0.306 inactive; #2 -0.263 inactive; #3 -0.27 inactive; #4 -0.207 inactive
TCF7L2: #1 -0.169 inactive; #2 0.0331 inactive; #3 -0.0931 inactive; #4 -0.187 inactive
OPN1MW: #1 0.416 inactive; #2 -0.518 inactive; #3 -0.225 inactive; #4 -0.395 inactive; #5 -0.221 inactive; #6 0.13 inactive
PPAN: #1 -0.0691 inactive; #2 -0.324 inactive; #3 -0.139 inactive; #4 -0.216 inactive
PCSK6: #1 0.283 inactive; #2 -0.0112 inactive; #3 -0.0212 inactive; #4 0.0762 inactive
ZNF85: #1 -0.0416 inactive; #2 -0.157 inactive; #3 -0.0397 inactive; #4 0.601 inactive
UBTD2: #1 0.0611 inactive; #2 -0.197 inactive; #3 0.0306 inactive; #4 -0.253 inactive
OR2F1: #1 0.00419 inactive; #2 -0.139 inactive; #3 -0.321 inactive; #4 -0.153 inactive
